Reference: the supplement of paper PMC10849652
This is one part of the list.

Protein sequences, listed by entry. Tags and fused reporters are not part of them. Lines headed by an entry give the natural chain unless they say otherwise; changes in a name come on top.
UniProt O96007: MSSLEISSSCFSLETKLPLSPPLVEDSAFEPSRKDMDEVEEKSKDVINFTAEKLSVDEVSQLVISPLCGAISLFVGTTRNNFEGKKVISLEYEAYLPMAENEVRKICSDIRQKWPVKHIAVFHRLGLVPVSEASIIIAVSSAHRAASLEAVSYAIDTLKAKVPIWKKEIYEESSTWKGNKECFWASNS
UniProt O95563: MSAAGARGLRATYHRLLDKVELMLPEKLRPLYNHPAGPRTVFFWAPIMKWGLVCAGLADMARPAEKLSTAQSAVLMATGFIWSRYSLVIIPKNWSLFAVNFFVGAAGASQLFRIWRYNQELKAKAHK
UniProt Q13724: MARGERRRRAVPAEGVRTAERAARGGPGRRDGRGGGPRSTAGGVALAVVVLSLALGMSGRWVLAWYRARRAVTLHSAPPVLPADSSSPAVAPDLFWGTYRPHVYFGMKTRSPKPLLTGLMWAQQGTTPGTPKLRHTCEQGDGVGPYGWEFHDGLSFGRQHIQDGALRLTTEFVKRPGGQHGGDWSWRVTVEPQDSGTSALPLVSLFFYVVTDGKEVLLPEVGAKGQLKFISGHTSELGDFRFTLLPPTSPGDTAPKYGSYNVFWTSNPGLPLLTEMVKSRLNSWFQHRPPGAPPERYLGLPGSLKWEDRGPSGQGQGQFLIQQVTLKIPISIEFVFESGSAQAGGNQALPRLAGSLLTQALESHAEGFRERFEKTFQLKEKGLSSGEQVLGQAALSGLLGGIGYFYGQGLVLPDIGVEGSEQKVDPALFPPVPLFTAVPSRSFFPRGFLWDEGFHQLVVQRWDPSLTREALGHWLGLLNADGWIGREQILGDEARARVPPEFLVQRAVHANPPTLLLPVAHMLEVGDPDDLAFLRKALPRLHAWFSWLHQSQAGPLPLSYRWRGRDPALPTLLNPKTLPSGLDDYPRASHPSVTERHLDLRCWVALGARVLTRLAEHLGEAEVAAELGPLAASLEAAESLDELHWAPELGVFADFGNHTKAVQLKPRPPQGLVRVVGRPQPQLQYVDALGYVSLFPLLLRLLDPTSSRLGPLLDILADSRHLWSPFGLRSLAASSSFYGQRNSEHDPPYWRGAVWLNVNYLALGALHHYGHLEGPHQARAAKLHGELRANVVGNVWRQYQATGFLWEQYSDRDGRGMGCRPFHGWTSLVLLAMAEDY
UniProt Q96EN8: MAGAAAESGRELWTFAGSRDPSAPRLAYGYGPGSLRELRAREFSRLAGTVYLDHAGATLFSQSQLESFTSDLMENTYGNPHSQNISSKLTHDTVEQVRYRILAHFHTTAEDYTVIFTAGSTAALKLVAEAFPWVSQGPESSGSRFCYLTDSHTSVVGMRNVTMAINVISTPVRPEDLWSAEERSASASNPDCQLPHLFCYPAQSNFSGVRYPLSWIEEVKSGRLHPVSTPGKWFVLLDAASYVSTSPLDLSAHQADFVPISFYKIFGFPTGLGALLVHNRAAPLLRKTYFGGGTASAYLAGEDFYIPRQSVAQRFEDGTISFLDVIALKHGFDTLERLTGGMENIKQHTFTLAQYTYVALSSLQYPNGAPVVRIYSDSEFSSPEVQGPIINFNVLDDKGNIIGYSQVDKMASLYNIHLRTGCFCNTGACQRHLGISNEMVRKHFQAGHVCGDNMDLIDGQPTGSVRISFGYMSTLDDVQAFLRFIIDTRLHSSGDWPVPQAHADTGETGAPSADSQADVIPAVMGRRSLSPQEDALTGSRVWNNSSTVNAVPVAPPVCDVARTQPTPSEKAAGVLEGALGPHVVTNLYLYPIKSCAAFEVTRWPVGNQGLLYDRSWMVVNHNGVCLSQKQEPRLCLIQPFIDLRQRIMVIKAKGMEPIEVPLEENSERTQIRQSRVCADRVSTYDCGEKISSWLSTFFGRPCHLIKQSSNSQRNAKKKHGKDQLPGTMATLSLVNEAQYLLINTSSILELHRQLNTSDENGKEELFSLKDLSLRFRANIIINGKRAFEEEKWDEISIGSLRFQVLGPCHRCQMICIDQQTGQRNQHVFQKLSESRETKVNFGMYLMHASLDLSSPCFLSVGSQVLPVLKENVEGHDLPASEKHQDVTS
UniProt Q567V2: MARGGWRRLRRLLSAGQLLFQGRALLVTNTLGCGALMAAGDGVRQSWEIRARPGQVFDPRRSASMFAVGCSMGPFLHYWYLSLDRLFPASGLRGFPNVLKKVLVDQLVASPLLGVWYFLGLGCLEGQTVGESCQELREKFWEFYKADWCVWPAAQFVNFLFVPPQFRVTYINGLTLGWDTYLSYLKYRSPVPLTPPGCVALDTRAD
UniProt Q13015: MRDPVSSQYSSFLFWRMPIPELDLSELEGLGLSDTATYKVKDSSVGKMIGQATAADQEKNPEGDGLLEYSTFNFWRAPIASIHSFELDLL

Legend:
Assay in all cases: log2 fold change, soluble protein after heating vs DMSO (PISA); higher = thermal stabilisation; K562 cells, 10 uM, 30 min; active = over 0.2 and 3.5 SD of the protein, either way, in both replicates (recomputed)
[1] = compound: CC[C@@H]1C(=O)N(C)c2cnc(Nc3ccc(C(=O)NC4CCN(C)CC4)cc3OC)nc2N1C1CCCC1
Method in brief: (§1)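 K562 cells at 2×10^6 cells/mL were treated for 30 min with 10 μM compound, and aliquots were heated for 3 min over 48°C-58°C before pooling. Extraction used PBS with 0.5% NP-40 at 4°C, and soluble protein was the supernatant after 21,000xg for 90 min, measured by TMTpro 16plex LC-MS/MS with channel sums equalised. Thermal stability values, relative to control samples and from duplicates, are log2 fold changes.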

volasertib = compound: CC[C@@H]1C(=O)N(C)c2cnc(Nc3ccc(C(=O)N[C@H]4CC[C@H](N5CCN(CC6CC6)CC5)CC4)cc3OC)nc2N1C(C)C [volasertib]
Method in brief: as §1

[2] = compound: CC[C@H](C)N1C=C(C2=C(C=C(C=C21)C3=CN=C(C=C3)N4CCNCC4)C(=O)NCC5=C(C=C(NC5=O)C)C)C
Method in brief: as §1

epoxomicin = compound: CC[C@H](C)[C@@H](C(=O)N[C@@H]([C@@H](C)O)C(=O)N[C@@H](CC(C)C)C(=O)[C@]1(CO1)C)NC(=O)[C@H]([C@@H](C)CC)N(C)C(=O)C [epoxomicin]
Method in brief: as §1

[3] = compound: CCn1c(C(=O)N(C2CC2)C2CC2)cc2c3c(ncn3C)c(Nc3cc(C)n(C)n3)nc21
Method in brief: as §1

[4] = compound: CCn1cc(-c2ccnc3[nH]c(-c4cccc(CN(C)C)c4)cc23)c(-c2ccc(NC(=O)N(C)C)cc2)n1
Method in brief: as §1

[5] = compound: CN(C)CC(=O)Nc1ccc2[nH]c(=O)c3ccccc3c2c1
Method in brief: as §1

rosiglitazone = compound: CN(CCOC1=CC=C(C=C1)C[C@H]2C(=O)NC(=O)S2)C3=CC=CC=N3 (racemic) [rosiglitazone]
Method in brief: as §1

[6] = compound: CN1C2=C(C3=C1C(=O)N(N=C3)CC4=CC(=CC=C4)N)SC(=C2)S(=O)C
Method in brief: as §1

[7] = compound: CN1CCC(CNc2ccc3ncc(-c4cccc(OC(F)(F)F)c4)n3n2)CC1
Method in brief: as §1

saracatinib = compound: CN1CCN(CCOc2cc(OC3CCOCC3)c3c(Nc4c(Cl)ccc5c4OCO5)ncnc3c2)CC1 [saracatinib]
Method in brief: as §1

sotrastaurin = compound: CN1CCN(c2nc(C3=C(c4c[nH]c5ccccc45)C(=O)NC3=O)c3ccccc3n2)CC1 [sotrastaurin]
Method in brief: as §1

alvocidib = compound: CN1CC[C@H](c2c(O)cc(O)c3c(=O)cc(-c4ccccc4Cl)oc23)[C@H](O)C1 [alvocidib]
Method in brief: as §1

Tubastatin A = compound: CN1CCc2c(c3ccccc3n2Cc2ccc(C(=O)NO)cc2)C1 [Tubastatin A]
Method in brief: as §1

[8] = compound: CNC(=O)C1=CC=CC=C1NC2=NC(=NC=C2Cl)NC3=C(C=C(C=C3)N4CCOCC4)OC
Method in brief: as §1

defactinib = compound: CNC(=O)c1ccc(Nc2ncc(C(F)(F)F)c(NCc3nccnc3N(C)S(C)(=O)=O)n2)cc1 [defactinib]
Method in brief: as §1

rucaparib = compound: CNCc1ccc(-c2[nH]c3cc(F)cc4c3c2CCNC4=O)cc1 [rucaparib]
Method in brief: as §1

[9] = compound: CNc1nc(-c2ccc3c(N)n[nH]c3c2)cc(N2C[C@@H](C(=O)NC3CCCCC3)CC[C@H]2C)n1
Method in brief: as §1

encorafenib = compound: COC(=O)N[C@@H](C)CNc1nccc(-c2cn(C(C)C)nc2-c2cc(Cl)cc(NS(C)(=O)=O)c2F)n1 [encorafenib]
Method in brief: as §1

[10] = compound: COC(=O)[C@H](CCSC)NC(=O)C1=C(C=C(C=C1)NC[C@H](CS)N)C2=CC=CC=C2
Method in brief: as §1

Measured: log2 fold change

MRPL39 (UniProt Q9NYK5)
inactive: [1] 0.071 | volasertib 0.057 | [2] 0.014 | epoxomicin -0.025 | [3] 0.033 | [4] -0.032 | [5] -0.033 | rosiglitazone -0.018 | [6] 0.031 | [7] 0.015 | saracatinib -0.123 | sotrastaurin -0.032 | alvocidib 0.079 | Tubastatin A 0.04 | [8] 0.016 | defactinib 0.089 | rucaparib 0.073 | [9] 0.073 | encorafenib 0.058 | [10] -0.033

MRPL28 (UniProt Q13084)
inactive: [1] 0.005 | volasertib 0.226 | [2] 0.032 | epoxomicin -0.081 | [3] 0.165 | [4] -0.108 | [5] 0.035 | rosiglitazone -0.057 | [6] -0.012 | [7] 0.096 | saracatinib -0.166 | sotrastaurin -0.08 | alvocidib 0.064 | Tubastatin A 0.05 | [8] 0.203 | defactinib 0.12 | rucaparib 0.198 | [9] 0.15 | encorafenib 0.089 | [10] -0.06

MOCS2 (UniProt O96007)
inactive: [1] 0.057 | volasertib -0.056 | [2] -0.048 | epoxomicin 0.018 | [3] 0.026 | [4] -0.001 | [5] 0.019 | rosiglitazone 0.001 | [6] -0.034 | [7] -0.029 | saracatinib 0.014 | sotrastaurin 0.014 | alvocidib -0.057 | Tubastatin A 0.041 | [8] -0.033 | defactinib 0.007 | rucaparib -0.004 | [9] -0.072 | encorafenib -0.028 | [10] 0.025

MRPL57 (UniProt Q9BQC6)
inactive: [1] 0.112 | volasertib 0.183 | [2] 0.061 | epoxomicin -0.075 | [3] -0.033 | [4] 0.007 | [5] -0.048 | rosiglitazone -0.074 | [6] 0.064 | [7] 0.006 | saracatinib -0.298 | sotrastaurin -0.004 | Tubastatin A 0.091 | [8] 0.023 | defactinib 0.197 | rucaparib 0.033 | [9] 0.118 | encorafenib 0.061 | [10] -0.048

2 successive entries already listed, for reference:
MRPL39 (UniProt Q9NYK5)
inactive: [1] 0.071 | volasertib 0.057 | [2] 0.014 | epoxomicin -0.025 | [3] 0.033 | [4] -0.032 | [5] -0.033 | rosiglitazone -0.018 | [6] 0.031 | [7] 0.015 | saracatinib -0.123 | sotrastaurin -0.032 | alvocidib 0.079 | Tubastatin A 0.04 | [8] 0.016 | defactinib 0.089 | rucaparib 0.073 | [9] 0.073 | encorafenib 0.058 | [10] -0.033

MRPL28 (UniProt Q13084)
inactive: [1] 0.005 | volasertib 0.226 | [2] 0.032 | epoxomicin -0.081 | [3] 0.165 | [4] -0.108 | [5] 0.035 | rosiglitazone -0.057 | [6] -0.012 | [7] 0.096 | saracatinib -0.166 | sotrastaurin -0.08 | alvocidib 0.064 | Tubastatin A 0.05 | [8] 0.203 | defactinib 0.12 | rucaparib 0.198 | [9] 0.15 | encorafenib 0.089 | [10] -0.06

Further entries.

MRPL21 (UniProt Q7Z2W9)
inactive: [1] 0.026 | volasertib 0.211 | [2] 0.07 | epoxomicin -0.027 | [3] -0.035 | [4] -0.182 | [5] -0.028 | rosiglitazone -0.047 | [6] 0.155 | [7] 0.075 | saracatinib -0.232 | sotrastaurin -0.182 | alvocidib 0.079 | Tubastatin A 0.109 | [8] 0.013 | defactinib 0.068 | rucaparib 0.056 | [9] 0.222 | encorafenib 0.115 | [10] -0.109

MRPL44 (UniProt Q9H9J2)
inactive: [1] 0.085 | volasertib 0.221 | [2] 0.087 | epoxomicin -0.046 | [3] -0.068 | [4] 0.007 | [5] -0.033 | rosiglitazone -0.044 | [6] 0.059 | [7] 0.068 | saracatinib -0.183 | sotrastaurin -0.057 | alvocidib 0.08 | Tubastatin A 0.091 | [8] -0.03 | defactinib 0.123 | rucaparib 0.088 | [9] 0.083 | encorafenib 0.176 | [10] -0.05

MRPL16 (UniProt Q9NX20)
inactive: [1] 0.081 | volasertib 0.241 | [2] 0.068 | epoxomicin -0.042 | [3] -0.066 | [4] 0 | [5] 0.019 | rosiglitazone 0.034 | [6] 0.198 | [7] 0.177 | saracatinib -0.033 | sotrastaurin -0.044 | alvocidib 0.165 | Tubastatin A 0.081 | [8] -0.057 | defactinib 0.179 | rucaparib 0.175 | [9] 0.226 | encorafenib -0.053 | [10] -0.121

MRPL20 (UniProt Q9BYC9)
inactive: [1] 0.059 | volasertib 0.112 | [2] 0.005 | epoxomicin -0.058 | [3] 0.02 | [4] -0.024 | [5] -0.029 | rosiglitazone -0.06 | [6] 0.202 | [7] 0.204 | saracatinib -0.051 | sotrastaurin -0.06 | alvocidib 0.009 | Tubastatin A -0.016 | [8] 0.045 | defactinib 0.118 | rucaparib 0.158 | [9] 0.19 | encorafenib 0.045 | [10] -0.098

MPC2 (UniProt O95563)
inactive: [1] 0.07 | volasertib 0.056 | [2] -0.044 | epoxomicin -0.031 | [3] -0.004 | [4] -0.02 | [5] -0.007 | rosiglitazone 0.025 | [6] -0.057 | [7] 0.118 | saracatinib 0.039 | sotrastaurin 0.029 | alvocidib -0.013 | Tubastatin A 0.007 | [8] -0.039 | defactinib -0.015 | rucaparib -0.074 | [9] -0.11 | encorafenib 0.03 | [10] 0.018

MOGS (UniProt Q13724)
inactive: [1] -0.036 | volasertib -0.033 | [2] 0.102 | epoxomicin 0.002 | [3] 0.015 | [4] 0.073 | [5] -0.04 | rosiglitazone 0.016 | [6] 0 | [7] 0.005 | saracatinib -0.099 | sotrastaurin 0.011 | alvocidib 0.058 | Tubastatin A 0.018 | [8] 0.017 | defactinib 0.032 | rucaparib 0.069 | [9] -0.011 | encorafenib 0.044 | [10] -0.05

MOCOS (UniProt Q96EN8)
inactive: [1] 0.009 | volasertib 0.003 | [2] 0.01 | epoxomicin -0.058 | [3] 0.008 | [4] -0.041 | [5] -0.023 | rosiglitazone 0 | [6] -0.062 | [7] 0.009 | saracatinib 0.091 | sotrastaurin 0.013 | alvocidib -0.186 | Tubastatin A -0.037 | [8] -0.064 | defactinib 0.028 | rucaparib 0.038 | [9] -0.063 | encorafenib -0.015 | [10] 0.024

MRPL51 (UniProt Q4U2R6)
inactive: [1] 0.102 | volasertib 0.217 | [2] -0.059 | epoxomicin -0.044 | [3] -0.078 | [4] 0.04 | [5] -0.017 | rosiglitazone -0.046 | [6] 0.13 | [7] -0.024 | saracatinib -0.212 | sotrastaurin 0.015 | alvocidib 0.078 | Tubastatin A 0.033 | [8] -0.06 | defactinib 0.184 | rucaparib 0.207 | [9] 0.106 | encorafenib 0.161 | [10] -0.024

MRPL3 (UniProt P09001)
inactive: [1] 0.116 | volasertib 0.161 | [2] 0.093 | epoxomicin -0.034 | [3] -0.029 | [4] -0.054 | [5] -0.007 | rosiglitazone -0.037 | [6] 0.092 | [7] 0.149 | saracatinib -0.122 | sotrastaurin -0.071 | alvocidib 0.08 | Tubastatin A 0.098 | [8] -0.014 | defactinib 0.189 | rucaparib 0.111 | [9] 0.235 | encorafenib 0.148 | [10] -0.051

MRPL22 (UniProt Q9NWU5)
inactive: [1] 0.05 | volasertib 0.176 | [2] -0.103 | epoxomicin -0.062 | [3] 0.026 | [4] 0.077 | [5] -0.052 | rosiglitazone 0.004 | [6] 0.11 | [7] 0.048 | saracatinib -0.186 | sotrastaurin 0.019 | alvocidib 0.063 | Tubastatin A 0.059 | [8] -0.051 | defactinib 0.194 | rucaparib 0.114 | [9] 0.119 | encorafenib 0.055 | [10] -0.108

MPV17L2 (UniProt Q567V2)
inactive: [1] 0.083 | volasertib 0.118 | [2] -0.008 | epoxomicin 0 | [3] 0.073 | [4] 0.04 | [5] 0.032 | rosiglitazone -0.036 | [6] -0.053 | [7] 0.056 | saracatinib 0.024 | sotrastaurin 0.209 | alvocidib 0.097 | Tubastatin A 0.022 | [8] -0.009 | defactinib -0.033 | rucaparib -0.001 | [9] -0.02 | encorafenib 0.012 | [10] -0.003

MLLT11 (UniProt Q13015)
inactive: [1] 0.119 | volasertib -0.17 | [2] 0.068 | epoxomicin 0.538 | [3] 0.013 | [4] -0.02 | [5] 0.567 | rosiglitazone 0.143 | [6] 0.055 | [7] -0.104 | saracatinib -0.138 | sotrastaurin 0.189 | alvocidib -0.17 | Tubastatin A 0.029 | [8] -0.031 | defactinib -0.182 | rucaparib -0.016 | [9] -0.047 | encorafenib -0.086 | [10] 0.293
